Source: publication PMC13551775
No constants are given. Whether binding was seen depends on the method and setting. Binding seen in cells or lysates may run through a third protein. Here binding means that the protein was enriched with, or labelled near, the bait; the list need not be complete. Sequences can lack the tags named with a protein.

The chains behind the UniProt entries cited, without tags or fusion partners.
UniProt Q92769: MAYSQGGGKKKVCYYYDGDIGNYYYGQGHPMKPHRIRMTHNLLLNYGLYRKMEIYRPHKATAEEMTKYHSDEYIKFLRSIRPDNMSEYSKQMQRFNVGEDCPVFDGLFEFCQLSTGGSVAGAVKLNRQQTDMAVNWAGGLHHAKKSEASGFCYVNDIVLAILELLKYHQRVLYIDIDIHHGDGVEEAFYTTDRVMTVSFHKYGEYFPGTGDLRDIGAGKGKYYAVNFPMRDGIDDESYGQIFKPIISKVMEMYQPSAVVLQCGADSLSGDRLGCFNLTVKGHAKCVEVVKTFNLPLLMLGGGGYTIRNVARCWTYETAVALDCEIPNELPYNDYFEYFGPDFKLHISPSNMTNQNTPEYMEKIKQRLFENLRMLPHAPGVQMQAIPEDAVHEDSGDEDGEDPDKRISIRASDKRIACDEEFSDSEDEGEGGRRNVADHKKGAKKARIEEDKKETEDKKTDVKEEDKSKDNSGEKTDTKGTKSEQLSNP
UniProt Q13242: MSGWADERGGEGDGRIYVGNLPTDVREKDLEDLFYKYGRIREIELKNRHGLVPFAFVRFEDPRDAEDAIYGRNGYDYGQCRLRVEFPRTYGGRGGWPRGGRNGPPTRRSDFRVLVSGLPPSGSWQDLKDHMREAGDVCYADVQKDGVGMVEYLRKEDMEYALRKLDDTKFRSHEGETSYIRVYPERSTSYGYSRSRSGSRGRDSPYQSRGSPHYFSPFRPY
UniProt Q08945: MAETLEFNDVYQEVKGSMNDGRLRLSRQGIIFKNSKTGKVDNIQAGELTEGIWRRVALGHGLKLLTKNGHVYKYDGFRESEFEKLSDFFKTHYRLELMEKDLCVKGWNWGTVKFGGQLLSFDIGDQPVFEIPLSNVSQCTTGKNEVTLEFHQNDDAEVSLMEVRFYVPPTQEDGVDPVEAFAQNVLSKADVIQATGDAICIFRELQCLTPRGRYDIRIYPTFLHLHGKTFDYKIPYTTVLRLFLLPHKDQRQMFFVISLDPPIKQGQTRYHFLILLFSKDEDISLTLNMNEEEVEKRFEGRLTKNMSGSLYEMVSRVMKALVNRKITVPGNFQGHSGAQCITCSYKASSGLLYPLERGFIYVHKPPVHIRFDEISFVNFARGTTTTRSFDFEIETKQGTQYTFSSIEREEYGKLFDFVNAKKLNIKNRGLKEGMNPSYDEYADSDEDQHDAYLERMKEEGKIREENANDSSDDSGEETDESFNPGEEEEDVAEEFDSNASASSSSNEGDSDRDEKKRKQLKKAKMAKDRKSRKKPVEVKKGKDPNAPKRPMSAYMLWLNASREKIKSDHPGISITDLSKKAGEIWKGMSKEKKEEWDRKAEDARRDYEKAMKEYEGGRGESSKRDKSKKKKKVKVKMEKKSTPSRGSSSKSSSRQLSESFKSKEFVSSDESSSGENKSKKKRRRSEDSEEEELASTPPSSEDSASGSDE
UniProt P62316: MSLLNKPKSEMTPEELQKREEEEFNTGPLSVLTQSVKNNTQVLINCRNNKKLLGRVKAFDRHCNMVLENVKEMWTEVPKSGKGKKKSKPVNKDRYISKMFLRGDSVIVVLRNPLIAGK
UniProt P09874: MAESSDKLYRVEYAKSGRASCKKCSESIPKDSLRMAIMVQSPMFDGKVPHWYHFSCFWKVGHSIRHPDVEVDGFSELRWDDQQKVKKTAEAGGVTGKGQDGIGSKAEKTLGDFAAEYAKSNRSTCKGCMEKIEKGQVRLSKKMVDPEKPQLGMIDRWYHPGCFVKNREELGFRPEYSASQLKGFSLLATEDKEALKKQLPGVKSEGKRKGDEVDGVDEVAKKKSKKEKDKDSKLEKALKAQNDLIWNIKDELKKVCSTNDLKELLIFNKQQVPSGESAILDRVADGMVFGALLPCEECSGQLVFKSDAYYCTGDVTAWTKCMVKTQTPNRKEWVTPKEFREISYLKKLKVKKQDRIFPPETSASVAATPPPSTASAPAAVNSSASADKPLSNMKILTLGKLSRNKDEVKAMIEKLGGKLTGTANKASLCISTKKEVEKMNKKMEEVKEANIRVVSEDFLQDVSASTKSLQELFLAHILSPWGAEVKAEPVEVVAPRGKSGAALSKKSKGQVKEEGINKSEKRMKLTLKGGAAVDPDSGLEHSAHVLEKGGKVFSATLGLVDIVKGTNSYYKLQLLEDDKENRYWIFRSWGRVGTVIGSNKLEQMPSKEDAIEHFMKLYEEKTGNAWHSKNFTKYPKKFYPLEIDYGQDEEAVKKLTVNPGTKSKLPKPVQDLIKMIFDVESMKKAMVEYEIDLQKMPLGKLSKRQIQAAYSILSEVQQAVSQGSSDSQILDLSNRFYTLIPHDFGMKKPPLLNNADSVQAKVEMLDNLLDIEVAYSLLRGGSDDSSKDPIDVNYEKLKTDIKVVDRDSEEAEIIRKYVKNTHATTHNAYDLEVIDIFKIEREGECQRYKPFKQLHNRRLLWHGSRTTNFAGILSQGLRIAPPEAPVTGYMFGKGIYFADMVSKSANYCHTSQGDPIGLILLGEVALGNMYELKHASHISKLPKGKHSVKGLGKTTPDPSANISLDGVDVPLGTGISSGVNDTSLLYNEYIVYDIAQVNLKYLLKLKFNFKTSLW
UniProt P62318: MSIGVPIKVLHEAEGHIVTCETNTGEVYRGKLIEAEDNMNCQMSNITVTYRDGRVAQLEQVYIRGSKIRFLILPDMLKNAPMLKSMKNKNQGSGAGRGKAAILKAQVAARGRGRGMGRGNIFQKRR

T1: Special AT-rich binding protein 2 (SATB2), GFP-tagged (human) (UniProt Q9UPW6)
T1 sequence: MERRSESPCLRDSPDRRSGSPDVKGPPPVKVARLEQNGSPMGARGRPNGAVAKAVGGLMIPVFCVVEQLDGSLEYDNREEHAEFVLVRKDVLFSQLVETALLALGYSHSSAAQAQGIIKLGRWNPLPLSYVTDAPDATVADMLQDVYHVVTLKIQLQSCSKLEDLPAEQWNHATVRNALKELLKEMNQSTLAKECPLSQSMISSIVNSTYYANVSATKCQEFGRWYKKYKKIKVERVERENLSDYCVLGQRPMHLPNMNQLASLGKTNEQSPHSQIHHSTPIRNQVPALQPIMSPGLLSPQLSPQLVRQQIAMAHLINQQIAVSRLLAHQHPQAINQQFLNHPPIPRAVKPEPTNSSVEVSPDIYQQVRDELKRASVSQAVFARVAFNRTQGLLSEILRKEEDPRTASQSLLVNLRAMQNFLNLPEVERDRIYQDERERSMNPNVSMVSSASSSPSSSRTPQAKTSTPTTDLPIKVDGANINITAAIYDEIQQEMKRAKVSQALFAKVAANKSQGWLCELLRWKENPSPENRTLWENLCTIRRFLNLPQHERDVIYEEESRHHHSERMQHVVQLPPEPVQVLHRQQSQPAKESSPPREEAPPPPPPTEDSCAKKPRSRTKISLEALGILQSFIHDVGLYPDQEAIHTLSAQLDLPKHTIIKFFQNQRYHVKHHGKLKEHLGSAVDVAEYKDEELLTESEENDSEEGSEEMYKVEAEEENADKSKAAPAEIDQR

B1: SRSF6 (protein, UniProt Q13247 1-344)
chain: MPRVYIGRLSYNVREKDIQRFFSGYGRLLEVDLKNGYGFVEFEDSRDADDAVYELNGKELCGERVIVEHARGPRRDRDGYSYGSRSGGGGYSSRRTSGRDKYGPPVRTEYRLIVENLSSRCSWQDLKDFMRQAGEVTYADAHKERTNEGVIEFRSYSDMKRALDKLDGTEINGRNIRLIEDKPRTSHRRSYSGSRSRSRSRRRSRSRSRRSSRSRSRSISKSRSRSRSRSKGRSRSRSKGRKSRSKSKSKPKSDRGSHSHSRSRSKDEYEKSRSRSRSRSPKENGKGDIKSKSRSRSQSRSNSPLPVPPSKARSVSPPPKRATSRSRSRSRSKSRSRSRSSSRD
B2: TRA2B (protein, UniProt P62995 1-288)
chain: MSDSGEQNYGERESRSASRSGSAHGSGKSARHTPARSRSKEDSRRSRSKSRSRSESRSRSRRSSRRHYTRSRSRSRSHRRSRSRSYSRDYRRRHSHSHSPMSTRRRHVGNRANPDPNCCLGVFGLSLYTTERDLREVFSKYGPIADVSIVYDQQSRRSRGFAFVYFENVDDAKEAKERANGMELDGRRIRVDFSITKRPHTPTPGIYMGRPTYGSSRRRDYYDRGYDRGYDDRDYYSRSYRGGGGGGGGWRAAQDRDQIYRRRSPSPYYSRGGYRSRSRSRSYSPRRY
B3: BANF1 (protein, UniProt O75531 1-89)
chain: MTTSQKHRDFVAEPMGEKPVGSLAGIGEVLGKKLEERGFDKAYVVLGQFLVLKKDEDLFREWLKDTCGANAKQSRDCFGCLREWCDAFL
B4: SRSF3 (protein, UniProt P84103 1-164)
chain: MHRDSCPLDCKVYVGNLGNNGNKTELERAFGYYGPLRSVWVARNPPGFAFVEFEDPRDAADAVRELDGRTLCGCRVRVELSNGEKRSRNRGPPPSWGRRPRDDYRRRSPPPRRRSPRRRSFSRSRSRSLSRDRRRERSLSRERNHKPSRSFSRSRSRSRSNERK

Target: T1, Special AT-rich binding protein 2 (SATB2), GFP-tagged (human)
Assay: affinity purification with mass spectrometry; 1 mg crude RIPA lysate of transfected BEAS-2B cells expressing GFP-tagged SATB2 and 3×FLAG tagged circ3915; anti-FLAG M2 affinity gel, 4 °C overnight; keratins and proteins of empty vector controls filtered out

binding, binds:
HDAC2 (from UniProt Q92769 1-488), SRSF9 (from UniProt Q13242 1-221), SSRP1 (from UniProt Q08945 1-709), macroH2A (human (endogenous in BEAS-2B)), SNRPD2 (from UniProt P62316 1-118), PARP1 (from UniProt P09874 1-1014), SNRPD3 (from UniProt P62318 1-126), B1, B2, B3, B4
